# Test results published in US20250154240A1, “ANTI-HUMAN CXCL1 ANTIBODY” (CHIOME BIOSCIENCE INC., priority 2022, published 2025).
# Results are given in words; binding and its absence hold for the method and conditions named. Binding calls can cover weak binding; strength is not graded here.
# Molecular target: cynomolgus monkey CXCL1 protein (cynomolgus monkey)
# Experiment: ELISA, CyCXCL1 immobilised on plate; ∘ = absorbance to CyCXCL1 80% or more of absorbance to HuCXCL1
row,Binder,binding
1,"4A-2F7 (antibody, V domains shown) VH: QVTLKESGPGILKPSQTLSLTCSFSGFSLSTSGMGVDWIRQPSGKGLEWLAHIWWDDDKYYNPSLKSQLTISKDTSRNQVFLKITSVDTADTATYYCARSYGYDMDYYAMDYWGQGTSVTVSS VL: DIQMTQSPSSLSASLGERVSLTCRASQEISGYLSWLQQKPDGTIKRLIYAASTLDSGVPKRFSGSRSGSDYSLTISSLESEDFADYYCLQYASYPPWTFGGGTKLEIK",binds
2,"1A-7H10 (antibody, V domains shown) VH: QVQLKESGPVLVAPSQSLSITCSVSGFSSTTYGVHWVRQPPGQGLEWLGVIWAGGSTNYNSALMSRLSISKDNSKSQVFLKMNSLQTDDTAMYYCATQYHYPFAYWGQGTLVTVSA VL: NIVMTQSPKSMSMSVGERVTLSCKASENVGIYVSWYQQKPEQSPKLMIYGASNRNTGVPDRFTGSGSATDFTLTISSVQAEDLADYYCGQSYSYPLTFGAGTKLELK",binds

# Next, values leading:
row,binding,Binder
1,binds,"028-8-12 (antibody, V domains shown) VH: EVQLLESGGGLVQPGGSLRLSCAASGFTFSELSMSWVRQAPGKGLEWVSAISGSGGSTYYADSVKGRFTISRDNSKNTLYLQMNSLRAEDTAVYYCAREGGRLEPYYYYYAMDVWGQGTPVTVSS VL: DIQMTQSPSSLSASVGDRVTITCRASQSISDNLHWYQQKPGKAPKLLIYDASNLESGVPSRFSGSGSGTDFTLTINSLQPEDFATYYCQQYYSTPLTFGQGTKLEIK"
2,binds,"5A-5E11 (antibody, V domains shown) VH: QVQLQQSGAELVRPGSSVKISCKASGYAFSDYWMNWVKQRPGQGLEWIGQIYPGDGDTNYNGKFKGKGTLTADKSSSTAYMQLNSLTSEDSAVYFCARERDYDVAMDYWGQGTSVTVSS VL: DIQMTQSPSSLSASLGGKVTITCKASQDINKYIAWFQHKPGKGPRLVIHYTSILQPGIPSRFSGVGSGRDYSFSIRNLEPEDIATYYCLQYDNLPWTFGGGTKLEIK"
